# Measured values from US9134318B2, “Detection of oxidized polypeptides” (Purdue Research Foundation, priority 2009, dated 2015).
# Experiments:
# [1] = Controlled H2O2 oxidation of DJ-1, proteolytic 18O labeling and LC/MS/MS quantitation of oxidative modifications (Table 13); parameters: species or system Human; settings: Mean ± SEM, N = 3
# [2] = system: carbonylated peptides (carbonylation sites) of plasma proteins; test: SRM relative quantification of carbonylation sites, diabetic vs lean rat plasma (Example 5, Table 15); assay type: in vivo, Zucker diabetic and lean rats
# [3] = 10-fold molar excess H2O2, treated/untreated
# [4] = 500-fold molar excess H2O2, treated/untreated
Molecule,"Mass spectral ratio, C106 sulfinic acid [1, 3]","Mass spectral ratio, M133 sulfoxide [1, 3]","Mass spectral ratio, M134 sulfoxide [1, 3]","Mass spectral ratio, C53 sulfonic acid ([1]; 500-fold molar excess H2O2, 18O H2O2-treated / 16O untreated peptide)","Mass spectral ratio, C106 sulfinic acid [1, 4]","Mass spectral ratio, C106 sulfonic acid [1, 4]","Mass spectral ratio, M133 sulfoxide [1, 4]","Mass spectral ratio, M134 sulfoxide [1, 4]","Ratio (diabetic plasma pooled sample/lean plasma pooled sample) replicate 1 ([2]; SRM of the peptide carrying the carbonylation site (modification and site in the same table row), pooled Zucker diabetic vs lean rat plasma, replicate 1)","Ratio (diabetic plasma pooled sample/lean plasma pooled sample) replicate 2 ([2]; SRM of the peptide carrying the carbonylation site (modification and site in the same table row), pooled Zucker diabetic vs lean rat plasma, replicate 2)","Average ([2]; average of replicate 1 and 2 ratios, diabetic/lean pooled plasma, SRM, per carbonylation site)","Average (diabetic/lean rat plasma pooled sample) ([2]; carbonylated peptide: K224 Biotinylated oxidized lysine, R: 228 Biotinylated oxidized arginine, sites 224, 228 (gi|2493792), SRM ratio)"
"M26I: Recombinant human DJ-1 with the M26I substitution, a familial Parkinson's disease mutant (protein, UniProt Q99497 1-189, looked up, variant M26I) MASKRALVILAKGAEEMETVIPVDVIRRAGIKVTVAGLAGKDPVQCSRDVVICPDASLEDAKKEGPYDVVVLPGGNLGAQNLSESAAVKEILKEQENRKGLIAAICAGPTALLAHEIGFGSKVTTHPLAKDKMMNGGHYTYSENRVEKDGLILTSRGPGTSFEFALAIVEALNGKEVAAQVKAPLVLKD",2.8 ± 0.8,0.2 ± 0.1,0.2 ± 0.1,4.0 ± 0.4,4.0 ± 0.6,4.1 ± 0.4,2 ± 2,0.39 ± 0.02,,,,
"C4b-binding protein alpha chain precursor (C4bp) (protein, UniProt P04003 49-597, looked up) C4b-binding protein alpha …: NCGPPPTLSFAAPMDITLTETRFKTGTTLKYTCLPGYVRSHSTQTLTCNSDGEWVYNTFCIYKRCRHPGELRNGQVEIKTDLSFGSQIEFSCSEGFFLIGSTTSRCEVQDRGVGWSHPLPQCEIVKCKPPPDIRNGRHSGEENFYAYGFSVTYSCDPRFSLLGHASISCTVENETIGVWRPSPPTCEKITCRKPDVSHGEMVSGFGPIYNYKDTIVFKCQKGFVLRGSSVIHCDADSKWNPSPPACEPNSCINLPDIPHASWETYPRPTKEDVYVVGTVLRYRCHPGYKPTTDEPTTVICQKNLRWTPYQGCEALCCPEPKLNNGEITQHRKSRPANHCVYFYGDEISFSCHETSRFSAICQGDGTWSPRTPSCGDICNFPPKIAHGHYKQSSSYSFFKEEIIYECDKGYILVGQAKLSCSYSHWSAPAPQCKALCRKPELVNGRLSVDKDQYVEPENVTIQCDSGYGVVGPQSITCSGNRTWYPEVPKCEWETPEGCEQVLTGKRLMQCLPNPEDVKMALEVYKLSLEIEQLELQRDSARQSTLDKEL",,,,,,,,,0.15,0.11,0.13,0.13

# For part of these data: The amount applied is not stated for every result.
